Results are given as percent effect.
The controls that fix the scale are not given in the record; negative values are as filed.
Compounds were drawn at random from those tested, without regard to their results.

Amino acid sequences for entries named in this document (tags omitted). Residues count along the entry.
UniProt A4I591, 1-473: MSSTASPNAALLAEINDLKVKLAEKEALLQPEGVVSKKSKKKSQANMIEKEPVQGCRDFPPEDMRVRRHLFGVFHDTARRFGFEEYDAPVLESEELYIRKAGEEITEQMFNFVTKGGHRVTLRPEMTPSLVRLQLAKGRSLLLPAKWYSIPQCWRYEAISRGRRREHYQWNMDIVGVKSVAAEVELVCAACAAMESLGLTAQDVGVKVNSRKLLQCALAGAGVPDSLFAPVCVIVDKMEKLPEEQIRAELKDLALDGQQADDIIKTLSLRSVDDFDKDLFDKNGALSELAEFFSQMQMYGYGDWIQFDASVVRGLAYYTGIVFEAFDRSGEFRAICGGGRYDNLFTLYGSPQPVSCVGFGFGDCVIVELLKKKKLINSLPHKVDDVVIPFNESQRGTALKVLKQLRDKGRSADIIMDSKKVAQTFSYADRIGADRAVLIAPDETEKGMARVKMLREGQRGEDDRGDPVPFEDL
UniProt Q8IDJ8, 1-583: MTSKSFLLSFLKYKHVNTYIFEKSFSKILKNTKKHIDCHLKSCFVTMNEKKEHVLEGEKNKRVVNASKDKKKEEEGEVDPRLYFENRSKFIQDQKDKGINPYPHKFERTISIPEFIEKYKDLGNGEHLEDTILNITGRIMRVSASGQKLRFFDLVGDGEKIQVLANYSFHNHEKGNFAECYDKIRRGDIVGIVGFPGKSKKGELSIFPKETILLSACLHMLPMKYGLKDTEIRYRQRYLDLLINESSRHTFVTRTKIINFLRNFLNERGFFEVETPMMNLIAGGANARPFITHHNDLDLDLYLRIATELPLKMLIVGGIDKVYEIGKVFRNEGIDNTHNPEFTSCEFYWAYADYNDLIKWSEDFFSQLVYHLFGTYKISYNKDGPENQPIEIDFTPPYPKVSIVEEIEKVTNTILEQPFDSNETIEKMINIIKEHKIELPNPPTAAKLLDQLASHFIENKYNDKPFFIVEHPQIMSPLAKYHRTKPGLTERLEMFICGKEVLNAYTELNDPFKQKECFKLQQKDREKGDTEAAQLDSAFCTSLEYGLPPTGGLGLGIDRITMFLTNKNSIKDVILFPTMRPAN

LiHisRS: 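Enzyme assay of histidyl-tRNA synthetase; the read-out is not stated. Target: Histidine-tRNA ligase, Leishmania infantum (UniProt A4I591). Concentration: 30 µM. Higher reads as stronger inhibition (inferred: compounds with an IC50 in retests scored well above the rest). The assay is labelled LdHisRS but filed under L. infantum. Size under these conditions: about 69,000 compounds, about 410 of them at 50% or above in at least one test.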
PfKRS1: 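Enzyme assay of the cytosolic lysyl-tRNA synthetase in 384-well plates, read by luminescence. Target: Lysine-tRNA ligase, Plasmodium falciparum 3D7 (UniProt Q8IDJ8). Concentration: 30 µM. Direction is inferred from only a few compounds that gave an IC50; most scored high, so higher reads as stronger inhibition. About 69,000 compounds were tested under these conditions; 0.071% (about 49) showed 50% or more at least once.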

Compound | LiHisRS | PfKRS1
CN1[C@@H](C(=O)NCC2CC2)C[C@@H]2CN(c3ncccn3)C[C@@H]21 | -23.68 | -0.3194
CCC1CN(CCNS(C)(=O)=O)c2ccccc2O1 (stereo unspecified) | 13.49 | 1.401
Cn1ccnc1CN1CCC2(CC1)Cc1ccccc1CNC2=O | 3.774 | 3.655
CC(C)C(Sc1cccs1)C(=O)NCc1cccnc1 (stereo unspecified) | 18.37 | 2.026
Cn1ccnc1CN1CCCN(C(=O)c2ccc3ccccc3c2)CC1 | 15.18 | 0.2364
CC(C)=CCC1(C(=O)O)CCCN(c2cc(N)ncn2)C1 (stereo unspecified) | 4.839 | 0.4496
CSCCCN1CCCC1c1noc(C)n1 (stereo unspecified) | 31.2 | 3.48
Cc1n[nH]c(C)c1CCC(=O)N1CCC(O)(CN2CCOCC2)C1 (stereo unspecified) | 5.797 | -1.195
Cc1nc(C)c2c(n1)CCN(Cc1ccco1)CC2 | 20.55 | 11.23
Cc1ncccc1Oc1ncnc(N2CCC(O)(CO)CC2)c1C | 6.452 | -1.405
O=C(c1ccco1)N1CCc2c(nc(-c3ccncc3)[nH]c2=O)C1 | -12.33 | -1.048
CCC(=O)N1CCCC1(C)c1nc(C)no1 (stereo unspecified) | 11.59 | -0.01423
CNC(=O)c1ccc(C2CN(c3cc(C)nc(N)n3)CCO2)nc1 (stereo unspecified) | 12.59 | -0.9149
Cc1cc(N2CCCN(C(=O)Cc3ccc(O)c(Cl)c3)CC2)ccn1 | 15.24 | 3.03
Cc1cccnc1CNC(=O)CC1C(=O)NCCN1CC(C)(C)C (stereo unspecified) | 0 | -0.3641
Cc1cn2c(n1)CCC(NC(=O)Cn1cncn1)C2 (stereo unspecified) | 8.036 | -1.209
COc1c(C2CCCN2C(=O)Cc2c(C)noc2C)c(C)nn1C (stereo unspecified) | 16.85 | 14.64
COc1ccc2c(c1)CCCN(C(C)C(=O)N1CCCC1)C2 (stereo unspecified) | 7.5 | 0.2485
Cc1cc(N(C)C)nc(C2(C)CCCN2C(=O)c2ccn(C)n2)n1 (stereo unspecified) | 0 | 1.651
Cn1cnnc1C1CCCN(C(=O)NCCNc2ccccn2)C1 (stereo unspecified) | 18.67 | -2.364
CC(C)(C)C(=O)N[C@H]1CC[C@H](Nc2nccc(-c3ccncc3)n2)C1 | 20.51 | 6.426
CS(=O)(=O)NCC(=O)NCc1cccnc1-n1cnc2ccccc21 | -2.778 | 4.233
Cc1ccccc1CN(CCN(C)C)Cc1ccc(S(C)(=O)=O)cc1 | 0 | 2.831
CCc1ccsc1C(=O)N(C)CCc1ccncc1 | 22.39 | 1.9
c1ccc(N2CCCC(c3nc(-c4cccnn4)no3)C2)nc1 (stereo unspecified) | 10.83 | 0.7703
CCN1CCN(c2ccc(C(=O)NCCOC)cc2F)CC1 | 2.381 | 0.914
O=C(c1ccncc1F)N1CCc2onc(COc3cccnc3)c2C1 | 22 | 1.254
COC(=O)[C@@H](NC(=O)Nc1ccc(C(C)=O)cc1)C(C)C | -6.522 | 2.488
CCc1noc(CN(C)Cc2cc(Br)ccc2OC)n1 | 4 | 0.7272
CCc1cc(NCC(N)=O)nc(N2CCCCC2)n1 | 14.29 | 2.663
O=C(c1cnccn1)N1CCC(Cc2cnc3[nH]ccc3c2)CC1 | 21.88 | 1.567
Cc1cc(C)cc(C(=O)NCCCC2(C3OCCO3)CCOCC2)c1 | 17.24 | -2.373
Cc1nn(CCC#N)c(C)c1CCC(=O)N(C)C | 25.71 | -1.367
Cc1nc2ccccc2c(=O)n1CCC(=O)N1CCCC1 | 17.86 | 2.761
COCC1CCN(C(=O)c2cn(Cc3ccccc3C(F)(F)F)nn2)C1 (stereo unspecified) | 5.128 | 7.726
CC(=O)NC1CCN(c2ncnc3c2c(C)nn3C)C1 (stereo unspecified) | 22.86 | 3.989
Cc1ccc(-c2noc(C3CCN3C(=O)c3cc[nH]n3)n2)s1 (stereo unspecified) | 6.993 | 0.7892
N#Cc1cnc2ccccc2c1N1CCN(C(=O)C2CCC2)CC1 | 4.225 | 14
CCn1nc(C)c(C(=O)N2CCC(Nc3ccc(C)nn3)CC2)c1C | 19.75 | 5.132
CC1(C(=O)N2CCC(n3cc(C4(O)CCCC4)nn3)CC2)CCCCC1 | 25.71 | 4.037
CCN(CC)Cc1cc(C(=O)N2CC(C)(C)[C@@](C)(O)C2)c(C)o1 | 9.211 | -0.8588
CC(C)CCN1CC2(CCN(C3CCCOC3)CC2)OC1=O (stereo unspecified) | 16.8 | 2.537
CCc1nc(CN2CCCN(C(=O)c3ccccc3)CC2)cs1 | 14 | 3.248
O=C(CC1CC1)N1CCc2ncc(CN3CCOCC3)n2CC1 | 14 | -0.2015
CSc1nccn1-c1cccc(C(=O)NCC2CC2)c1 | 19.7 | 3.495
O=C1CCC2(CCCN(C(=O)Cc3ccccc3)C2)N1 (stereo unspecified) | 15.53 | 2.868
O=C1CSC(c2ccncc2)c2c[nH]nc2N1 (stereo unspecified) | 5.517 | 7.656
Cc1ccc(O)c(C(=O)N2CCC(CN3CCCCCC3)CC2)c1 | 8.901 | -0.3052
COc1ccc(C(=O)N2CCN3C(=O)CNC(=O)[C@@H]3C2)cc1 | 19.44 | -0.5504
Cc1cc(Br)ccc1C(=O)N(C)CCNS(C)(=O)=O | 5.128 | 3.475
CCN(Cc1ccncc1)C(=O)c1cn(CCC2CCCCC2)nn1 | 18 | 5.163
OCCn1nnnc1Cc1ccc(Br)cc1 | 21.13 | -0.6647
COCCN1CCN(CC(=O)N(C)Cc2cccc(F)c2)CC1C (stereo unspecified) | 9.091 | -1.353
COCCn1ccnc1CN1CCc2[nH]cnc2C1c1cccc(O)c1 (stereo unspecified) | 13.04 | 4.913
CCn1c(CN(C)C)nnc1C1CCN(Cc2ccccc2)CC1 | 19.81 | 2.342
O=C1CSC(c2ccsc2)c2c(n(C3CCCC3)[nH]c2=O)N1 (stereo unspecified) | 2.632 | -2.788
O=S(=O)(c1ccccc1)N1CCC2(CCCN2Cc2ccccc2Cl)C1 (stereo unspecified) | 6 | -4.68
CN1CCN(Cc2ccc(-c3ccc4[nH]ccc4c3)nc2)CC1 | 15.58 | 2.983

6 of the entries, repeated:

Compound	LiHisRS	PfKRS1
COc1ccc2c(c1)CCCN(C(C)C(=O)N1CCCC1)C2 (stereo unspecified)	7.5	0.2485
Cc1ncccc1Oc1ncnc(N2CCC(O)(CO)CC2)c1C	6.452	-1.405
CCc1cc(NCC(N)=O)nc(N2CCCCC2)n1	14.29	2.663
COc1c(C2CCCN2C(=O)Cc2c(C)noc2C)c(C)nn1C (stereo unspecified)	16.85	14.64
CCn1c(CN(C)C)nnc1C1CCN(Cc2ccccc2)CC1	19.81	2.342
CCN1CCN(c2ccc(C(=O)NCCOC)cc2F)CC1	2.381	0.914

Source: ChEMBL document CHEMBL3988442, “University of Dundee, Small-Polar-MMV Screening Library” (2021).